Data set [1] relates to CML CD34+ cells. The data set can be described thus: RNA-seq differential gene expression and GSEA of imatinib-treated CML CD34+ cells. The class given is cell-based, human. Conditions: imatinib 2 μM, 48 hours, n=4 patient samples. The method, then: RNA was extracted from 200,000 CML CD34+ cells using an RNA easy mini kit (Qiagen) according to the manufacturer's instructions.
Libraries were prepared using the Illumina TruSeq Stranded mRNA LT Kit (Illumina) and run on the Illumina Next Seq 500 using the High Output 75 cycles kit (2×36 cycles, paired end reads, single index; Illumina). FastQ files were generated using Illumina's bcl2fastq (v. 2.20.0.422).
QC, alignment, and parsing of files into count matrices was performed in command line, with subsequent differential gene expression (DGE) analysis performed in R (1.2.1335). Adapter trimming was performed using Scythe (version 0.981), and Sickle (version 0.940), was used to trim bases with quality scores of less than 20. Prior to and after this pre-processing fastqc (version 0.11.2) was run to ascertain sequence quality, alongside the efficacy of the pre-processing steps. Trimmed reads were indexed and aligned using Hisat2 (version 2.1.0). Hisat2 indexes (GRCh38 genome_tran) were obtained from the John Hopkins Center for Computational Biology, 2020. Samtools (version 0.1.19044428cd) view was used to convert the resulting .sam to .bam files, whilst samtools sort was used to sort the .bam files. Assembly was achieved through the use of stringtie (John Hopkins Center for Computational Biology, 2020), with output .gtf files converted to count matrices using the python script prepDE.py (stringtie version 1.3.3b.Linux_x86_64). Reads were assembled using an annotated reference human genome (GRCh38.p13), obtained from GENCODE (GENECODE, 2020). DESeq2 (version 1.26.0) was used to generate results sets from the gene and transcript count matrices. G genes with read counts too low to allow for the calculation of p and adjusted p-values (padj: Benjamini-Hochberg) were removed from the data sets leaving gene and transcript counts of sizes 16,069 and 45,218 respectively.
GSEA (version 4.1) was conducted on pre-ranked lists (ranked by pi score calculated by multiplying LOG fold change by −LOG (corrected p-value)).

In data set [2] the test system is CML CD34+ cells. The note with it: imatinib for 7 days, dataset E-MTAB-2594; cited from earlier work.

Turning to `Cc1ccc(NC(=O)c2ccc(CN3CCN(C)CC3)cc2)cc1Nc1nccc(-c2cccnc2)n1` [imatinib], in the data set on CML CD34+ cells [1], the “downregulated genes (number)” value was found to be 576 genes, the “downregulated genes (share of expressed genes)” value is 3.6%, the “upregulated genes (number)” value was found to be 452 genes and the “upregulated genes (share of expressed genes)” value stood at 2.8%. Further, in the data set with CML CD34+ cells [2], the “significantly different expressed genes (number)” value is given as 10,762 and the “significantly different expressed genes (share)” value is 56%.
